# Some of the results follow.
# B1: SspB A3vp1 (Streptococcus gordonii), Q54186 (protein)
# chain: MTNEADYQAKLAAYQTELARVQKANADAKATYEKAVEDNKAKNAAIKAENEEIKQRNAVAKTDYEAKLAKYEADLAKYKKEFAAYTAALAEAESKKKQDGYLSEPRSQSLNFKSEPNAIRTIDSSVHQYGQQELDALVKSWGISPTNPDRKKSRAYSYFNAINSNNTYAKLVLEKDKPVDVTYTGLKNSSFNGKKISKVVYTYTLKETGFNDGTKMTMFASSDPTVTAWYNDYFTSTNINVKVKFYDEEGQLMNLTGGLVNFSSLNRGNGSGAIDKDAIESVRNFNGRYIPISGSSIKIHENNSAYADSSNAEKSLGARWNTSEWDTTSSPNNWYGAIVGEITQSEISFNMASSKSGNIWFAFNSNINAIGVPTKPVAPTAPTQPMYETEKPLEPAPVAPSYENEPTPPVKTPDQPEPSKPAAALEHHHHHH
# Key:
# Assay in all cases: glycan array binding signal (z-score within array); higher = stronger binding
# Conditions in all cases: glycan notation: IUPAC condensed, linker removed
# [1] = target: Gal(b1-4)GlcNAc(b1-3)Gal(b1-4)GlcNAc(b1-6)[Gal(b1-3)]GalNAc
# Method in brief: (§1)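 The Consortium for Functional Glycomics database supplied 3228 glycan arrays, of which those lacking an available protein sequence were dropped. The binding signal, a within-array Z-score, was averaged across arrays of the same protein sequence and across linkers. Negative scores can be read as non-binding.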
# [2] = target: Gal(b1-4)GlcNAc(b1-3)Gal(b1-4)[Fuc(a1-3)]GlcNAc(b1-3)Gal(b1-4)[Fuc(a1-3)]GlcNAc
# Method in brief: as §1
# [3] = target: Gal(b1-4)GlcNAc(b1-3)GalNAc
# Method in brief: as §1
# [4] = target: Gal(b1-4)GlcNAc(b1-3)[Fuc(a1-3)GlcNAc(b1-6)]Gal(b1-4)Glc
# Method in brief: as §1
# [5] = target: Gal(b1-4)GlcNAc(b1-3)[Gal(b1-4)GlcNAc(b1-6)]Gal(b1-4)GlcNAc
# Method in brief: as §1
# [6] = target: Gal(b1-4)GlcNAc(b1-3)[GlcNAc(b1-6)]Gal(b1-4)GlcNAc
# Method in brief: as §1
# [7] = target: Gal(b1-4)GlcNAc(b1-6)Gal(b1-4)GlcNAc
# Method in brief: as §1
# [8] = target: Gal(b1-4)GlcNAc(b1-6)GalNAc
# Method in brief: as §1
# [9] = target: Gal(b1-4)GlcNAc(b1-6)[Gal(b1-3)]GalNAc
# Method in brief: as §1
# [10] = target: Gal(b1-4)GlcNAc(b1-6)[Gal(b1-4)GlcNAc(b1-3)]GalNAc
# Method in brief: as §1
# Gal(b1-4)GlcNAc6P = target: Gal(b1-4)GlcNAc6P
# Method in brief: as §1
# Gal(b1-6)Gal = target: Gal(b1-6)Gal
# Method in brief: as §1
# Gal3S(b1-3)GalNAc = target: Gal3S(b1-3)GalNAc
# Method in brief: as §1
# Gal3S(b1-3)GlcNAc = target: Gal3S(b1-3)GlcNAc
# Method in brief: as §1
# [11] = target: Gal3S(b1-3)[Fuc(a1-4)]GlcNAc
# Method in brief: as §1
# Gal3S(b1-4)Glc = target: Gal3S(b1-4)Glc
# Method in brief: as §1
# Gal3S(b1-4)Glc6S = target: Gal3S(b1-4)Glc6S
# Method in brief: as §1
# Gal3S(b1-4)GlcNAc = target: Gal3S(b1-4)GlcNAc
# Method in brief: as §1
# [12] = target: Gal3S(b1-4)[Fuc(a1-3)]Glc6S
# Method in brief: as §1
# [13] = target: Gal3S(b1-4)[Fuc(a1-3)]GlcNAc
# Method in brief: as §1
# [14] = target: Gal3S(b1-4)[Fuc(a1-3)]GlcNAc6S
# Method in brief: as §1
# Gal3S4S(b1-4)GlcNAc = target: Gal3S4S(b1-4)GlcNAc
# Method in brief: as §1
# Gal3S6S(b1-4)GlcNAc = target: Gal3S6S(b1-4)GlcNAc
# Method in brief: as §1
# Gal3S6S(b1-4)GlcNAc6S = target: Gal3S6S(b1-4)GlcNAc6S
# Method in brief: as §1
# Gal4S(b1-4)GlcNAc = target: Gal4S(b1-4)GlcNAc
# Method in brief: as §1
# Gal4S6S(b1-4)GlcNAc = target: Gal4S6S(b1-4)GlcNAc
# Method in brief: as §1
# Gal6P(b1-4)GlcNAc = target: Gal6P(b1-4)GlcNAc
# Method in brief: as §1
# Gal6S(b1-3)GlcNAc = target: Gal6S(b1-3)GlcNAc
# Method in brief: as §1
# Gal6S(b1-3)GlcNAc6S = target: Gal6S(b1-3)GlcNAc6S
# Method in brief: as §1
# Gal6S(b1-4)Glc = target: Gal6S(b1-4)Glc
# Method in brief: as §1
# Gal6S(b1-4)Glc6S = target: Gal6S(b1-4)Glc6S
# Method in brief: as §1
# Gal6S(b1-4)GlcNAc = target: Gal6S(b1-4)GlcNAc
# Method in brief: as §1
# Gal6S(b1-4)GlcNAc6S = target: Gal6S(b1-4)GlcNAc6S
# Method in brief: as §1
# GalNAc(a1-3)Gal = target: GalNAc(a1-3)Gal
# Method in brief: as §1
# GalNAc(a1-3)GalNAc = target: GalNAc(a1-3)GalNAc
# Method in brief: as §1
# [15] = target: GalNAc(a1-3)GalNAc(a1-3)Gal(a1-4)Gal(b1-4)GlcNAc
# Method in brief: as §1
# [16] = target: GalNAc(a1-3)GalNAc(b1-3)Gal(a1-4)Gal(b1-4)Glc
# Method in brief: as §1
# GalNAc(b1-3)Gal = target: GalNAc(b1-3)Gal
# Method in brief: as §1
# [17] = target: GalNAc(b1-3)Gal(a1-4)Gal(b1-4)GlcNAc
# Method in brief: as §1
# [18] = target: GalNAc(b1-3)Gal(a1-4)Gal(b1-4)GlcNAc(b1-3)Gal(b1-4)Glc
# Method in brief: as §1
# [19] = target: GalNAc(b1-3)Gal(a1-6)Gal(b1-4)Glc
# Method in brief: as §1
# GalNAc(b1-3)GalNAc = target: GalNAc(b1-3)GalNAc
# Method in brief: as §1
# GalNAc(b1-3)GlcNAc = target: GalNAc(b1-3)GlcNAc
# Method in brief: as §1
# GalNAc(b1-4)Gal(b1-4)Glc = target: GalNAc(b1-4)Gal(b1-4)Glc
# Method in brief: as §1
# GalNAc(b1-4)GlcNAc = target: GalNAc(b1-4)GlcNAc
# Method in brief: as §1
binder,measurement,setting,value
B1,glycan array binding signal (z-score),[1],2.1
same,glycan array binding signal (z-score),[2],0.156
same,glycan array binding signal (z-score),[3],-0.052
same,glycan array binding signal (z-score),[4],-0.392
same,glycan array binding signal (z-score),[5],-0.309
same,glycan array binding signal (z-score),[6],-0.081
same,glycan array binding signal (z-score),[7],-0.324
same,glycan array binding signal (z-score),[8],-0.083
same,glycan array binding signal (z-score),[9],0.609
same,glycan array binding signal (z-score),[10],0.076
same,glycan array binding signal (z-score),Gal(b1-4)GlcNAc6P,0.545
same,glycan array binding signal (z-score),Gal(b1-6)Gal,0.959
same,glycan array binding signal (z-score),Gal3S(b1-3)GalNAc,0.06
same,glycan array binding signal (z-score),Gal3S(b1-3)GlcNAc,-0.649
same,glycan array binding signal (z-score),[11],0.041
same,glycan array binding signal (z-score),Gal3S(b1-4)Glc,0.262
same,glycan array binding signal (z-score),Gal3S(b1-4)Glc6S,-0.174
same,glycan array binding signal (z-score),Gal3S(b1-4)GlcNAc,-0.535
same,glycan array binding signal (z-score),[12],2.5
same,glycan array binding signal (z-score),[13],-0.171
same,glycan array binding signal (z-score),[14],-0.117
same,glycan array binding signal (z-score),Gal3S4S(b1-4)GlcNAc,-0.13
same,glycan array binding signal (z-score),Gal3S6S(b1-4)GlcNAc,-0.52
same,glycan array binding signal (z-score),Gal3S6S(b1-4)GlcNAc6S,-0.625
same,glycan array binding signal (z-score),Gal4S(b1-4)GlcNAc,0.061
same,glycan array binding signal (z-score),Gal4S6S(b1-4)GlcNAc,-1.45
same,glycan array binding signal (z-score),Gal6P(b1-4)GlcNAc,-0.815
same,glycan array binding signal (z-score),Gal6S(b1-3)GlcNAc,-0.505
same,glycan array binding signal (z-score),Gal6S(b1-3)GlcNAc6S,-0.645
same,glycan array binding signal (z-score),Gal6S(b1-4)Glc,-0.142
same,glycan array binding signal (z-score),Gal6S(b1-4)Glc6S,-0.029
same,glycan array binding signal (z-score),Gal6S(b1-4)GlcNAc,-0.624
same,glycan array binding signal (z-score),Gal6S(b1-4)GlcNAc6S,-0.199
same,glycan array binding signal (z-score),GalNAc(a1-3)Gal,-0.288
same,glycan array binding signal (z-score),GalNAc(a1-3)GalNAc,-1.09
same,glycan array binding signal (z-score),[15],-1.07
same,glycan array binding signal (z-score),[16],-0.593
same,glycan array binding signal (z-score),GalNAc(b1-3)Gal,0.001
same,glycan array binding signal (z-score),[17],1.54
same,glycan array binding signal (z-score),[18],-0.702
same,glycan array binding signal (z-score),[19],0.652
same,glycan array binding signal (z-score),GalNAc(b1-3)GalNAc,-0.708
same,glycan array binding signal (z-score),GalNAc(b1-3)GlcNAc,-0.204
same,glycan array binding signal (z-score),GalNAc(b1-4)Gal(b1-4)Glc,0.071
same,glycan array binding signal (z-score),GalNAc(b1-4)GlcNAc,-0.021

# 3 consecutive entries from above:
binder,measurement,setting,value
B1,glycan array binding signal (z-score),Gal3S6S(b1-4)GlcNAc,-0.52
same,glycan array binding signal (z-score),Gal3S6S(b1-4)GlcNAc6S,-0.625
same,glycan array binding signal (z-score),Gal4S(b1-4)GlcNAc,0.061
